Binding data for two substances are collected here from PMC6382798.

Sequences of proteins named here, by UniProt entry; tags and fusion partners are left off. A change or cut given only in a name is not applied to a line headed by its entry.
UniProt O75475: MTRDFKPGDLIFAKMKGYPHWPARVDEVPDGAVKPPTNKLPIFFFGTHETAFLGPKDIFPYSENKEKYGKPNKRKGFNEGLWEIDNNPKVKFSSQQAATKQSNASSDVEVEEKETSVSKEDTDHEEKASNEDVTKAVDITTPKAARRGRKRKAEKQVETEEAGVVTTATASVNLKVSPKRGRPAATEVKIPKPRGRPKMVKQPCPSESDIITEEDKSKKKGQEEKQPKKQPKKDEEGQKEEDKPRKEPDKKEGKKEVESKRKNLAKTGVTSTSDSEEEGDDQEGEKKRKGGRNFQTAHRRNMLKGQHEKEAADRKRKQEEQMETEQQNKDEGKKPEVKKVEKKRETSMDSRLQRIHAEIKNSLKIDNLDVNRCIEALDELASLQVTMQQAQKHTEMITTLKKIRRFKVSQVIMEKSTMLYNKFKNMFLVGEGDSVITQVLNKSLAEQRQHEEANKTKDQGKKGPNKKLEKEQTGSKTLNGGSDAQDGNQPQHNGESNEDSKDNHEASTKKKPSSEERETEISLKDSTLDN

These are yes or no findings as the source states them, for the method shown. Binding seen in cells or lysates may run through a third protein. Some results given as binding are weak or reduced against the parent protein; the word gives no strength. Sequences can lack the tags named with a protein.

The experiment concerns the target T1, 3xFlag-JPO2 (UniProt Q96GN5).
T1 sequence: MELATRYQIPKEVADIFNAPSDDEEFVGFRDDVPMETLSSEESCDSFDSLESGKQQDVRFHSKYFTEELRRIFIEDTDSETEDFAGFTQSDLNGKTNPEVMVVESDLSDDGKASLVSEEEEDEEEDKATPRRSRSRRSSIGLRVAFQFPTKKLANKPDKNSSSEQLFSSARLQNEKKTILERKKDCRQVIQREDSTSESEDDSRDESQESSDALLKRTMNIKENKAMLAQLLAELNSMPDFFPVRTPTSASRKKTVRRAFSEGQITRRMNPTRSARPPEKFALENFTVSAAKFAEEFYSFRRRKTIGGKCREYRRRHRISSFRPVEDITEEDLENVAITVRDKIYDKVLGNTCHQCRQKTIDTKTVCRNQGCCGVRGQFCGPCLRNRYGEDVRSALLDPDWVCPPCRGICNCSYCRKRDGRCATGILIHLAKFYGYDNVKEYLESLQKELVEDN
In words: co-IP; HEK293T_LEDGF KO clone 1 cells co-transfected with LEDGF or LEDGF D366N and a 3xFlag-tagged partner; nuclear lysate (20 mM Tris-HCl pH 7.4, 400 mM NaCl, 0.1% IGEPAL, 1 mM DTT) incubated with anti-FLAG M2-agarose resin; washed 3 times in 400 mM NaCl buffer; Western blot with anti-Flag and anti-LEDGF(480-530). (Immunoblotting shows a protein as a band on a membrane.)

Regarding “LEDGF/p75 D366N mutant (from UniProt O75475 1-530)”, the binding result is recorded as “binds”. Under “Lens Epithelial Derived Growth Factor p75 (LEDGF/p75), wild type (from UniProt O75475 1-530)” stands “binds”.
